Results are given in words; binding and its absence hold for the method and conditions named. Some results given as binding are weak or reduced against the parent protein; the word gives no strength.
Molecular target: von Willebrand factor (Vwf) (mouse (endogenous in plasma)) (UniProt Q8CIZ8)
Test: SDS/agarose gel electrophoresis with immunoblot; plasma of WT and QSOX1 KO mice diluted 1:20, SDS/agarose gel, vacuum blot to PVDF, probed with rabbit anti-VWF

Amino acid sequences for entries named in this document (tags omitted). Residues count along the entry.
UniProt Q8CIZ8, residues 764-2813: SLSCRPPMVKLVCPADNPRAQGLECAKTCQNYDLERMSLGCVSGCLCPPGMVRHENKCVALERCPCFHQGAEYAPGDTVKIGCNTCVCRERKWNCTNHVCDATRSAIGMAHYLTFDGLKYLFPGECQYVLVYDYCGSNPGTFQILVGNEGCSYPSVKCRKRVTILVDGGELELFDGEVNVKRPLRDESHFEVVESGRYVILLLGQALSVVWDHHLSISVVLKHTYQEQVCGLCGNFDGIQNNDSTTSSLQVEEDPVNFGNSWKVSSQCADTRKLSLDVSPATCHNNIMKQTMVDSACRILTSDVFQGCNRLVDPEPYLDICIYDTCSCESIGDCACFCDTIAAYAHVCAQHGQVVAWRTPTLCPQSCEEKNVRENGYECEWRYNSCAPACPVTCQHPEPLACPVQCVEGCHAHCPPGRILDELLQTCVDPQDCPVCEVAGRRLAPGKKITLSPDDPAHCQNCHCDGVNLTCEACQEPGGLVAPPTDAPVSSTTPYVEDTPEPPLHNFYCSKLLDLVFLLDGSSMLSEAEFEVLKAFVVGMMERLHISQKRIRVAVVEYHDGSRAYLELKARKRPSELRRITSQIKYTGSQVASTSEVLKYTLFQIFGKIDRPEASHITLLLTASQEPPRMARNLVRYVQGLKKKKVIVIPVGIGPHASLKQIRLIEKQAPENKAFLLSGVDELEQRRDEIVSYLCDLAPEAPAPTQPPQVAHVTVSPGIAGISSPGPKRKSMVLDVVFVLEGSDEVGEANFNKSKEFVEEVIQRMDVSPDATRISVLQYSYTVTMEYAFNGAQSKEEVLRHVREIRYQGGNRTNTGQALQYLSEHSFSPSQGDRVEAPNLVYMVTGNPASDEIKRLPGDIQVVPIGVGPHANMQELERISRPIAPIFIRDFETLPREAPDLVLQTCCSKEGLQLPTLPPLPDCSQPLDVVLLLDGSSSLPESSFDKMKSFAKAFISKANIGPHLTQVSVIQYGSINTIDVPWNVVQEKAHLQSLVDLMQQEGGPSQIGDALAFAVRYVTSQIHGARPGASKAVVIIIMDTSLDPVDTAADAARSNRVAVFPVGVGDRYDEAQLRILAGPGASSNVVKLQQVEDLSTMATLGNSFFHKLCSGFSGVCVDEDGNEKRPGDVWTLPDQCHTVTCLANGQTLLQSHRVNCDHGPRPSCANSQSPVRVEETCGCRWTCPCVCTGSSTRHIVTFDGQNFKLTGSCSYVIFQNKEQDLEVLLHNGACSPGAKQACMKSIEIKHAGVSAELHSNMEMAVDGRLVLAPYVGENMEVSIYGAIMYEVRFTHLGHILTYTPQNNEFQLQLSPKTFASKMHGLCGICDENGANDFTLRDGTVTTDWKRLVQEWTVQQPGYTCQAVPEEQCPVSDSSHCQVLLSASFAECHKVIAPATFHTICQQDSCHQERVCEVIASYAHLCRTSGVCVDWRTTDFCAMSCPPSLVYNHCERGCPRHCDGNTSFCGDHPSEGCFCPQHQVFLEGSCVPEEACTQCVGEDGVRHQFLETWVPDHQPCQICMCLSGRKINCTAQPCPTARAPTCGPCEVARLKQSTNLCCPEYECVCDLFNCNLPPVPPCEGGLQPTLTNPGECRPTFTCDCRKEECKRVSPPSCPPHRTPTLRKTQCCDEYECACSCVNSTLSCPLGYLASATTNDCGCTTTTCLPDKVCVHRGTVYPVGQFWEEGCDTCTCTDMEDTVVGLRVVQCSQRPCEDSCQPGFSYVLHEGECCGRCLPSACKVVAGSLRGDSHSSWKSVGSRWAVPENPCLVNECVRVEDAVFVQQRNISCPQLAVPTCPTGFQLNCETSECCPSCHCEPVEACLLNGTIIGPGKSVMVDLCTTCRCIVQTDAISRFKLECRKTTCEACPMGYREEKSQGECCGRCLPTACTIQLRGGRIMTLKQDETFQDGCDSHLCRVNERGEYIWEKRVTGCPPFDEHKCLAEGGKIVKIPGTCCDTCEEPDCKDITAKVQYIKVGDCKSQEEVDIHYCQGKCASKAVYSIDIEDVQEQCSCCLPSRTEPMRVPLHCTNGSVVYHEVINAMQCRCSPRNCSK

binding: binds
Substance: von Willebrand factor (Vwf) (from UniProt Q8CIZ8 764-2813)

— paper PMC9841341
